The supplement of paper PMC10849652
This is one part of the list.

The chains behind the UniProt entries cited, without tags or fusion partners. Where a name states a change or a piece, a line headed by the entry shows the natural chain unless it says otherwise.
UniProt Q00537: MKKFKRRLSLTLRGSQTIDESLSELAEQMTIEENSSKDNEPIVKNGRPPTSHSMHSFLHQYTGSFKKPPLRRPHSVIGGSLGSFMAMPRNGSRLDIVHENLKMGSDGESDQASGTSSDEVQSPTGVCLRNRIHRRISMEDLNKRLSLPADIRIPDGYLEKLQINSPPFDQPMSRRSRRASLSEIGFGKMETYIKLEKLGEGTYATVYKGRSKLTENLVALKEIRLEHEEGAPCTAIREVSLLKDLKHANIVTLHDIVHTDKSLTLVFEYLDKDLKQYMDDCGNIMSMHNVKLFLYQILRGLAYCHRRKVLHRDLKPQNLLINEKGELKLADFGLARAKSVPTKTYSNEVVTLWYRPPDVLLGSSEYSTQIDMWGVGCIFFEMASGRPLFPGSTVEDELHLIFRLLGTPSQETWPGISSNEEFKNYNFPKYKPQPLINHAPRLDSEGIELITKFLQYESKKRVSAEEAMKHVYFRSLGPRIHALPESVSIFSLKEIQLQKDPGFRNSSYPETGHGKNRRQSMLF
UniProt Q92879: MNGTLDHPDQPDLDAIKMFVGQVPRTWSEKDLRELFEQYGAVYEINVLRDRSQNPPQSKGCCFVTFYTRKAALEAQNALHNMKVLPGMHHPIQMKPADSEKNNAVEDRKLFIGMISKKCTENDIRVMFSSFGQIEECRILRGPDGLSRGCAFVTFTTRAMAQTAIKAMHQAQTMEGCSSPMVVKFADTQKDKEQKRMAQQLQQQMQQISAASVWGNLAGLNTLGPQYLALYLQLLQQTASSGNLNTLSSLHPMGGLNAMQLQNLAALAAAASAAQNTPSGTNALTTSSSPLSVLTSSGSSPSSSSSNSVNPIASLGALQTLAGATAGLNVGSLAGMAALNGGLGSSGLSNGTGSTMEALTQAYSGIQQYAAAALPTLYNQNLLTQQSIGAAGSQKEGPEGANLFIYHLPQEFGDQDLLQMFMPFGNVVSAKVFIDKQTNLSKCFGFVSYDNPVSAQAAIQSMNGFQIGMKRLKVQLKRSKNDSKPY
UniProt P30305: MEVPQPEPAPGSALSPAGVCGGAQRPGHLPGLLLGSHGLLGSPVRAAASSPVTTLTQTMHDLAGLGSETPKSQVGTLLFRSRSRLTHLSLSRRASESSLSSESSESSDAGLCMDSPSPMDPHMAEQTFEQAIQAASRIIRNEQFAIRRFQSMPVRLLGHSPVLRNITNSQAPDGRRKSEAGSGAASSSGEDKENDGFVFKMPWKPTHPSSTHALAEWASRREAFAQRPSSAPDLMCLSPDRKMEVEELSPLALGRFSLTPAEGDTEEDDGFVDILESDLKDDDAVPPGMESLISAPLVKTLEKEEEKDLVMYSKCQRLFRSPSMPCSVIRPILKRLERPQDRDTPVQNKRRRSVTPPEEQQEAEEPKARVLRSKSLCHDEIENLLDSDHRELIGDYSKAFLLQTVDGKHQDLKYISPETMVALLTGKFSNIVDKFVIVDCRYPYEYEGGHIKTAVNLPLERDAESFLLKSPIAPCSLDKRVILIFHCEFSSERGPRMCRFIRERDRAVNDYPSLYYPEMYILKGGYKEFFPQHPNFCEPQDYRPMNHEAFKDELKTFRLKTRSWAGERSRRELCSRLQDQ
UniProt Q86X02: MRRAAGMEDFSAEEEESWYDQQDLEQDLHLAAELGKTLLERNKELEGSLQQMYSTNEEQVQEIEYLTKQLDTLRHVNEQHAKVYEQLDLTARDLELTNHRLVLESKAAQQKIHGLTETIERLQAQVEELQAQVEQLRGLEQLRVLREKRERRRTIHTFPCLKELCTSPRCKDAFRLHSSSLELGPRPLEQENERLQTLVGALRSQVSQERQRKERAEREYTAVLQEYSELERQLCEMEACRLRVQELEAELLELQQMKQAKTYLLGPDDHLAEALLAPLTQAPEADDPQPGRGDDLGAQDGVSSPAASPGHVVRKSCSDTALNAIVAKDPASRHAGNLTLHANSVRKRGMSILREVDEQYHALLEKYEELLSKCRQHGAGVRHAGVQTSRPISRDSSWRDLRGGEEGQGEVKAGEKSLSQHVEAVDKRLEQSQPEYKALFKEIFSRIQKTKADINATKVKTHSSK
UniProt Q6ZTR5: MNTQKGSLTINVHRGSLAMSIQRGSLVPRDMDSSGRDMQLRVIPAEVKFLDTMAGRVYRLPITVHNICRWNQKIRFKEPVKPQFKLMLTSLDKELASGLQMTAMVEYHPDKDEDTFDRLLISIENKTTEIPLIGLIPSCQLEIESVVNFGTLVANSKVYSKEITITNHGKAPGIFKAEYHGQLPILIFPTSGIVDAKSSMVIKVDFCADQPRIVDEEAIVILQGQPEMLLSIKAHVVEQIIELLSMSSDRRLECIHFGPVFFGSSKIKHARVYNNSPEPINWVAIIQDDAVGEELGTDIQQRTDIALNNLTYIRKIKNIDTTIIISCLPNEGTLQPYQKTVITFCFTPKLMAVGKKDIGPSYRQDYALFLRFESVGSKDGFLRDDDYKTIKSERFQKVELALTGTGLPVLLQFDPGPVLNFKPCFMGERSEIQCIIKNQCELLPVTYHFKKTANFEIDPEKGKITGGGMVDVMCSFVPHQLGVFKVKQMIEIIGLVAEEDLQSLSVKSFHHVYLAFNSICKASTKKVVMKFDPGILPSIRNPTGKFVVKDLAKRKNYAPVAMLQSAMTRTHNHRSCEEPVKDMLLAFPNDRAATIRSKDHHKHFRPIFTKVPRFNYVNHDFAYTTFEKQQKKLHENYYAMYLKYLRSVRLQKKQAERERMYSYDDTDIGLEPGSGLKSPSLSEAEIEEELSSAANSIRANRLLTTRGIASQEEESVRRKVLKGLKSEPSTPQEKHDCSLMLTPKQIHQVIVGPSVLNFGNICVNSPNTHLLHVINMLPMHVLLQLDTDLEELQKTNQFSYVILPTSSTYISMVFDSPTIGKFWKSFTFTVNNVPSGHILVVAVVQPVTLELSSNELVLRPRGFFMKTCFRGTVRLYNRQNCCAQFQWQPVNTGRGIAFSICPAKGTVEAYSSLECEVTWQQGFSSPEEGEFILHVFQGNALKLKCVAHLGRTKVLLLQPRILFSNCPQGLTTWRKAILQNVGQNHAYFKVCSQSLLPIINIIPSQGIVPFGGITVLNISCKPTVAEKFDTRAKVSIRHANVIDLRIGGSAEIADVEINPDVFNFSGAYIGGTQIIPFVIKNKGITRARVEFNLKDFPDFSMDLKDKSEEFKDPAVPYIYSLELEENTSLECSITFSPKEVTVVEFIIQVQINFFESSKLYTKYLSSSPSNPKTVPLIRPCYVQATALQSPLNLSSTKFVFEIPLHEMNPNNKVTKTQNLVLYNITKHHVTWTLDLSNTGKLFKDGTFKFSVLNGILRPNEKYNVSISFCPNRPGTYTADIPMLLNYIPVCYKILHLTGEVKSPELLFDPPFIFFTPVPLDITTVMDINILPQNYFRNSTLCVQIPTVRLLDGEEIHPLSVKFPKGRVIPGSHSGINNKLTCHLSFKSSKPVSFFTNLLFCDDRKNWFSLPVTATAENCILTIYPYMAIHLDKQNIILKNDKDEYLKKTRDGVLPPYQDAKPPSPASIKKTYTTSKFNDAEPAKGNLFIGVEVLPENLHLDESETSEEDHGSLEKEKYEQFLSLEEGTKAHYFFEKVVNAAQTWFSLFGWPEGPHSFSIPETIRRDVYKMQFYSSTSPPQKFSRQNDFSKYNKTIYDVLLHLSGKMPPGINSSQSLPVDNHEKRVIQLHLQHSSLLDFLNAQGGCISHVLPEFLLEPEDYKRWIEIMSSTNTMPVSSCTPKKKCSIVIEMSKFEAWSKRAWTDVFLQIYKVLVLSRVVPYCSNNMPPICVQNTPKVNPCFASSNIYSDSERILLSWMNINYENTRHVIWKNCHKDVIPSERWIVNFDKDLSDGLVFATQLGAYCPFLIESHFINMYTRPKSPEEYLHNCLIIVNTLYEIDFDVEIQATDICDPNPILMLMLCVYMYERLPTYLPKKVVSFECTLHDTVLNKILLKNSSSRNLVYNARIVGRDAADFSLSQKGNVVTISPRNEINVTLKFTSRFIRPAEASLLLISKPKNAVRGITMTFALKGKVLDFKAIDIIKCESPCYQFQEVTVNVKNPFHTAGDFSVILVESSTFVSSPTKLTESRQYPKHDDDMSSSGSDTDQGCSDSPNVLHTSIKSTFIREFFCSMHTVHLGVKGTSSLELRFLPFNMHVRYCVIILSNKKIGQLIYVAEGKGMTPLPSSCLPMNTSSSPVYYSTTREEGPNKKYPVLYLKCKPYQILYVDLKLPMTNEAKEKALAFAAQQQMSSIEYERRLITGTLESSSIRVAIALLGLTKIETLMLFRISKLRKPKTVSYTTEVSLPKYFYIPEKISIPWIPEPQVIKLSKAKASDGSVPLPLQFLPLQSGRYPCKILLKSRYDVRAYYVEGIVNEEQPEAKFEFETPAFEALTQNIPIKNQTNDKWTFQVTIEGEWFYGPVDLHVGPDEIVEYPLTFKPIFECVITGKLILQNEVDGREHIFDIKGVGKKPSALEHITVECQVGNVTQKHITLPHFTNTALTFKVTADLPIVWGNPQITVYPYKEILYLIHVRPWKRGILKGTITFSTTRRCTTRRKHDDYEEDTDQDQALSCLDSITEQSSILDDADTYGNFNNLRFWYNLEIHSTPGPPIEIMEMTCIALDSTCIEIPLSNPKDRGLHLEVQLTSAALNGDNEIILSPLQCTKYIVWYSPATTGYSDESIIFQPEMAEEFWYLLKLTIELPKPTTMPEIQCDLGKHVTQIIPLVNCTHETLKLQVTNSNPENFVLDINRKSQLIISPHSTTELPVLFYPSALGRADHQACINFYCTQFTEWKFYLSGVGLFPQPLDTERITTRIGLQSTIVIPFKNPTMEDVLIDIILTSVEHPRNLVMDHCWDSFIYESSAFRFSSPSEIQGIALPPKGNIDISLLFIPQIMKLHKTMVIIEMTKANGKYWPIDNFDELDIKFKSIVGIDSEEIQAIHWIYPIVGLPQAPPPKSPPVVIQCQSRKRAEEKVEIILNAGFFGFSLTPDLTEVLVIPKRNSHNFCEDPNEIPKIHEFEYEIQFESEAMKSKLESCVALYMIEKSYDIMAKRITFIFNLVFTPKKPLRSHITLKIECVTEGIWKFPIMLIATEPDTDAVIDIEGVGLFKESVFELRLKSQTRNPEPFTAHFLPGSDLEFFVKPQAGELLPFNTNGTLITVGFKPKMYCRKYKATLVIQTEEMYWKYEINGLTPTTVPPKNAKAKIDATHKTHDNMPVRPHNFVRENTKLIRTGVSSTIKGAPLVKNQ
UniProt O00748: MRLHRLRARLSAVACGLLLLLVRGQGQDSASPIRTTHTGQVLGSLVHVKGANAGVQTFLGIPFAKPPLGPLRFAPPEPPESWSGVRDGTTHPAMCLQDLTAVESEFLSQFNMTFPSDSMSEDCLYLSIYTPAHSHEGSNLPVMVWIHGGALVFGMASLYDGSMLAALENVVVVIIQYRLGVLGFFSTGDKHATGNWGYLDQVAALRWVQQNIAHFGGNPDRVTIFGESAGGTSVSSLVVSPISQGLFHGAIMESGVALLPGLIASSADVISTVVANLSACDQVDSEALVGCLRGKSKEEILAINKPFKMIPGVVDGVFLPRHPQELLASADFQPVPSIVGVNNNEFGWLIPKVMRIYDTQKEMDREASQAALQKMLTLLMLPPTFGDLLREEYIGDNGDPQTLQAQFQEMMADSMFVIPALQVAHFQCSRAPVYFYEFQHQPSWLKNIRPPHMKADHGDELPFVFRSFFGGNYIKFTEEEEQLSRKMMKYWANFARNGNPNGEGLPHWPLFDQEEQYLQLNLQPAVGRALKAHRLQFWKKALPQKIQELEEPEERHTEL
UniProt Q7L2Z9: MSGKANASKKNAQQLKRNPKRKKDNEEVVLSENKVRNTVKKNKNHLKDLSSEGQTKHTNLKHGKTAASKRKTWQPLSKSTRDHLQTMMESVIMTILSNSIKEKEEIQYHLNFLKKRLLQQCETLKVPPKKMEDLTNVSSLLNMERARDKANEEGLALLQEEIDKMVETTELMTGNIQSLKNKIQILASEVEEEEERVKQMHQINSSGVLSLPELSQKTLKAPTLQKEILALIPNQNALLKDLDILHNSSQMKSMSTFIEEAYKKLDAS
UniProt Q6IPU0: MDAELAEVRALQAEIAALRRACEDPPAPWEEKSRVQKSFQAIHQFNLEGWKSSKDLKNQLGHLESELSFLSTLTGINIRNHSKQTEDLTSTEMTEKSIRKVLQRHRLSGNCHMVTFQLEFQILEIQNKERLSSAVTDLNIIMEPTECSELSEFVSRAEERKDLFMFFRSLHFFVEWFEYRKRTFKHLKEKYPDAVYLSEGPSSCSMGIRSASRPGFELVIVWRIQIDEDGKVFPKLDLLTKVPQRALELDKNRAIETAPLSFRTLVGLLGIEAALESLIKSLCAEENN

Experiments:
Experiment in all cases: log2 fold change, soluble protein after heating vs DMSO (PISA); higher = thermal stabilisation; K562 lysate, 10 uM; active = over 0.2 and 3.5 SD of the protein, either way, in both replicates (recomputed)
alvocidib = compound: CN1CC[C@H](c2c(O)cc(O)c3c(=O)cc(-c4ccccc4Cl)oc23)[C@H](O)C1 [alvocidib]
Outline: (§1)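 Thermal stability, expressed as log-two fold change relative to solvent controls, is given from duplicates. Crude K562 extract in PBS pH 7.4 with 1 mM MgCl2, at 1 mg/mL protein, was treated with 10 μM compound for 30 min and heated in aliquots for 3 min across 48°C-58°C. After pooling, adjustment to 0.5% NP-40 at 4°C and centrifugation at 21,000xg for 90 min, supernatant protein was measured by TMTpro 16plex LC-MS/MS with channel sums equalised.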

Tubastatin A = compound: CN1CCc2c(c3ccccc3n2Cc2ccc(C(=O)NO)cc2)C1 [Tubastatin A]
Outline: as §1

[1] = compound: CNC(=O)C1=CC=CC=C1NC2=NC(=NC=C2Cl)NC3=C(C=C(C=C3)N4CCOCC4)OC
Outline: as §1

defactinib = compound: CNC(=O)c1ccc(Nc2ncc(C(F)(F)F)c(NCc3nccnc3N(C)S(C)(=O)=O)n2)cc1 [defactinib]
Outline: as §1

[2] = compound: CNc1nc(-c2ccc3c(N)n[nH]c3c2)cc(N2C[C@@H](C(=O)NC3CCCCC3)CC[C@H]2C)n1
Outline: as §1

encorafenib = compound: COC(=O)N[C@@H](C)CNc1nccc(-c2cn(C(C)C)nc2-c2cc(Cl)cc(NS(C)(=O)=O)c2F)n1 [encorafenib]
Outline: as §1

[3] = compound: COC(=O)[C@H](CCSC)NC(=O)C1=C(C=C(C=C1)NC[C@H](CS)N)C2=CC=CC=C2
Outline: as §1

alisertib = compound: COc1cc(Nc2ncc3c(n2)-c2ccc(Cl)cc2C(c2c(F)cccc2OC)=NC3)ccc1C(=O)O [alisertib]
Outline: as §1

[4] = compound: COc1cc2nc(-c3cc(F)ccc3O)nc(N[C@@H]3CNC[C@H]3C(C)(C)O)c2cc1OC
Outline: as §1

gefitinib = compound: COc1cc2ncnc(Nc3ccc(F)c(Cl)c3)c2cc1OCCCN1CCOCC1 [gefitinib]
Outline: as §1

lapatinib = compound: CS(=O)(=O)CCNCc1ccc(-c2ccc3ncnc(Nc4ccc(OCc5cccc(F)c5)c(Cl)c4)c3c2)o1 [lapatinib]
Outline: as §1

pictilisib = compound: CS(=O)(=O)N1CCN(Cc2cc3nc(-c4cccc5[nH]ncc45)nc(N4CCOCC4)c3s2)CC1 [pictilisib]
Outline: as §1

crizotinib = compound: C[C@@H](Oc1cc(-c2cnn(C3CCNCC3)c2)cnc1N)c1c(Cl)ccc(F)c1Cl [crizotinib]
Outline: as §1

[5] = compound: C[C@H](C1=CC=C(C=C1)C(=O)NC2=C3C=CNC3=NC=C2)N
Outline: as §1

duvelisib = compound: C[C@H](Nc1ncnc2nc[nH]c12)c1cc2cccc(Cl)c2c(=O)n1-c1ccccc1 [duvelisib]
Outline: as §1

gandotinib = compound: Cc1cc(Nc2cc(CN3CCOCC3)c3nc(C)c(Cc4ccc(Cl)cc4F)n3n2)n[nH]1 [gandotinib]
Outline: as §1

tozasertib = compound: Cc1cc(Nc2cc(N3CCN(C)CC3)nc(Sc3ccc(NC(=O)C4CC4)cc3)n2)n[nH]1 [tozasertib]
Outline: as §1

doramapimod = compound: Cc1ccc(-n2nc(C(C)(C)C)cc2NC(=O)Nc2ccc(OCCN3CCOCC3)c3ccccc23)cc1 [doramapimod]
Outline: as §1

bafetinib = compound: Cc1ccc(NC(=O)c2ccc(CN3CC[C@H](N(C)C)C3)c(C(F)(F)F)c2)cc1Nc1nccc(-c2cncnc2)n1 [bafetinib]
Outline: as §1

[6] = compound: Cc1cccc(CC(=O)N2CCc3c2ccc(-c2cn(C)c4ncnc(N)c24)c3F)n1
Outline: as §1

Measured: log2 fold change

CDC20 (UniProt Q12834)
inactive: alvocidib -0.009 | Tubastatin A -0.01 | [1] 0.067 | defactinib -0.298 | [2] 0.111 | encorafenib 0.115 | [3] 0.056 | alisertib 0.039 | [4] 0.099 | gefitinib 0.058 | lapatinib 0.092 | pictilisib -0.028 | crizotinib 0.012 | [5] 0.015 | duvelisib -0.082 | gandotinib -0.016 | tozasertib -0.027 | doramapimod 0.061 | bafetinib -0.103 | [6] 0.031

CDK17 isoform 2 (UniProt Q00537)
active: alvocidib 0.599
inactive: Tubastatin A -0.015 | [1] -0.051 | defactinib 0.139 | [2] -0.018 | encorafenib 0.099 | [3] -0.129 | alisertib -0.121 | gefitinib -0.132 | pictilisib -0.008 | crizotinib 0.026 | [5] 0.096 | duvelisib -0.04 | gandotinib 0.042 | tozasertib -0.113 | doramapimod 0.15 | bafetinib -0.033 | [6] -0.359

CELF1 isoform 4 (UniProt Q92879)
inactive: alvocidib 0 | Tubastatin A -0.167 | [1] 0.034 | defactinib 0.049 | [2] -0.059 | encorafenib 0.108 | [3] -0.031 | alisertib 0.048 | [4] -0.026 | gefitinib 0.056 | lapatinib 0.011 | pictilisib 0.023 | crizotinib 0.032 | [5] 0.021 | duvelisib -0.036 | gandotinib -0.028 | tozasertib 0.019 | bafetinib -0.09 | [6] -0.018
active: doramapimod -0.605

CDC25B (UniProt P30305)
inactive: alvocidib 0.049 | Tubastatin A -0.083 | [1] 0.01 | defactinib -0.117 | [2] 0.019 | encorafenib 0.028 | [3] 0.052 | alisertib 0.046 | [4] -0.036 | gefitinib -0.043 | lapatinib 0.223 | pictilisib -0.002 | [5] -0.004 | duvelisib -0.018 | gandotinib -0.065 | tozasertib -0.039 | doramapimod 0.009 | bafetinib -0.033 | [6] -0.034

CDS2 (UniProt O95674)
inactive: alvocidib -0.037 | Tubastatin A 0.116 | [1] -0.036 | defactinib 0.04 | [2] -0.021 | encorafenib 0.027 | [3] 0.007 | alisertib 0.012 | [4] 0.033 | gefitinib 0 | lapatinib 0.02 | pictilisib -0.007 | crizotinib 0.031 | [5] -0.029 | duvelisib 0.088 | gandotinib 0.048 | tozasertib 0.054 | doramapimod 0.009 | bafetinib 0.006 | [6] 0.019

CDR2L (UniProt Q86X02)
inactive: alvocidib 0.035 | Tubastatin A -0.024 | [1] -0.012 | defactinib -0.088 | [2] 0.018 | encorafenib -0.04 | [3] -0.124 | alisertib 0.02 | [4] 0.023 | gefitinib 0.14 | lapatinib -0.004 | pictilisib -0.066 | crizotinib 0.018 | [5] -0.059 | duvelisib -0.008 | gandotinib -0.04 | tozasertib -0.031 | doramapimod -0.003 | bafetinib 0.052 | [6] -0.104

CEP192 (UniProt Q8TEP8)
inactive: alvocidib -0.081 | Tubastatin A -0.096 | [1] 0.195 | defactinib 0.017 | [2] 0.053 | encorafenib 0.07 | [3] -0.042 | alisertib 0.029 | [4] 0.021 | gefitinib -0.038 | lapatinib -0.043 | pictilisib -0.064 | crizotinib 0.046 | [5] -0.112 | duvelisib 0.022 | gandotinib 0.069 | tozasertib 0.071 | doramapimod 0.002 | bafetinib -0.122 | [6] 0.159

CFAP47 (UniProt Q6ZTR5)
inactive: alvocidib -0.098 | Tubastatin A 0.104 | [1] 0.092 | defactinib -0.045 | [2] 0.612 | encorafenib 0.005 | [3] 0.133 | alisertib -0.271 | [4] 0.117 | gefitinib -0.121 | lapatinib -0.05 | crizotinib -0.083 | [5] -0.329 | duvelisib -0.042 | gandotinib 0.321 | tozasertib -0.165 | doramapimod -0.055 | [6] 0.257

CENPF (UniProt P49454)
inactive: alvocidib 0 | Tubastatin A -0.042 | [1] 0.02 | defactinib 0.032 | [2] 0.004 | encorafenib 0.011 | [3] -0.061 | alisertib -0.006 | [4] 0.03 | gefitinib 0.046 | lapatinib -0.029 | pictilisib -0.011 | crizotinib 0 | [5] 0.074 | duvelisib -0.013 | gandotinib -0.037 | tozasertib 0.01 | doramapimod -0.008 | bafetinib 0.015 | [6] 0.002

CDK2 (UniProt P24941)
inactive: Tubastatin A 0.021 | [1] 0.08 | defactinib 0.196 | [2] 0.048 | encorafenib 0.016 | [3] -0.012 | alisertib -0.01 | [4] 0.072 | gefitinib -0.012 | lapatinib -0.026 | pictilisib 0.028 | crizotinib 0 | duvelisib -0.026 | tozasertib 0.008 | doramapimod 0.004 | bafetinib 0.042 | [6] -0.001
active: alvocidib 0.304 | gandotinib 0.403

CDC73 (UniProt Q6P1J9)
inactive: alvocidib 0 | Tubastatin A -0.065 | [1] 0.004 | defactinib -0.011 | [2] -0.048 | encorafenib -0.002 | [3] 0.022 | alisertib 0.017 | [4] -0.02 | gefitinib -0.026 | lapatinib 0.01 | pictilisib -0.008 | crizotinib -0.005 | [5] 0.063 | duvelisib 0.023 | gandotinib -0.082 | tozasertib 0.014 | doramapimod 0.026 | bafetinib -0.029 | [6] -0.031

CES2 isoform 4 (UniProt O00748)
inactive: alvocidib 0.021 | Tubastatin A -0.065 | [1] 0.09 | defactinib -0.111 | [2] 0.219 | encorafenib 0.075 | [3] 0.01 | alisertib -0.084 | [4] -0.002 | gefitinib -0.061 | lapatinib 0.027 | pictilisib 0.32 | crizotinib 0.079 | [5] -0.003 | duvelisib 0.021 | gandotinib 0.016 | tozasertib 0 | doramapimod 0.015 | bafetinib 0.154 | [6] 0.036

CEPT1 (UniProt Q9Y6K0)
inactive: alvocidib -0.012 | Tubastatin A 0.055 | [1] -0.024 | defactinib 0 | [2] -0.051 | encorafenib 0.019 | [3] -0.025 | alisertib 0.054 | [4] -0.123 | gefitinib -0.036 | lapatinib -0.121 | pictilisib -0.08 | crizotinib -0.122 | [5] -0.106 | duvelisib -0.019 | gandotinib -0.058 | tozasertib 0.025 | doramapimod -0.07 | bafetinib -0.124
active: [6] 0.223

CENPQ (UniProt Q7L2Z9)
inactive: alvocidib -0.122 | Tubastatin A -0.016 | [1] 0.032 | defactinib -0.085 | [2] 0.055 | encorafenib 0.169 | [3] 0.025 | alisertib 0 | [4] -0.068 | gefitinib 0.091 | lapatinib 0.101 | pictilisib 0.015 | crizotinib -0.028 | [5] -0.226 | duvelisib -0.027 | gandotinib 0.071 | tozasertib -0.196 | doramapimod 0.001 | bafetinib 0.017 | [6] -0.013

CENPP (UniProt Q6IPU0)
inactive: alvocidib -0.057 | Tubastatin A -0.036 | [1] -0.049 | defactinib 0.019 | [2] 0.092 | encorafenib 0.062 | [3] 0.075 | alisertib 0.068 | [4] 0.008 | gefitinib 0.078 | lapatinib 0.067 | crizotinib 0.002 | [5] -0.02 | duvelisib 0.029 | gandotinib -0.102 | tozasertib 0.135 | doramapimod 0.022 | [6] 0.04

Two neighbouring entries out of the list so far, for reference:
CEPT1 (UniProt Q9Y6K0)
inactive: alvocidib -0.012 | Tubastatin A 0.055 | [1] -0.024 | defactinib 0 | [2] -0.051 | encorafenib 0.019 | [3] -0.025 | alisertib 0.054 | [4] -0.123 | gefitinib -0.036 | lapatinib -0.121 | pictilisib -0.08 | crizotinib -0.122 | [5] -0.106 | duvelisib -0.019 | gandotinib -0.058 | tozasertib 0.025 | doramapimod -0.07 | bafetinib -0.124
active: [6] 0.223

CENPQ (UniProt Q7L2Z9)
inactive: alvocidib -0.122 | Tubastatin A -0.016 | [1] 0.032 | defactinib -0.085 | [2] 0.055 | encorafenib 0.169 | [3] 0.025 | alisertib 0 | [4] -0.068 | gefitinib 0.091 | lapatinib 0.101 | pictilisib 0.015 | crizotinib -0.028 | [5] -0.226 | duvelisib -0.027 | gandotinib 0.071 | tozasertib -0.196 | doramapimod 0.001 | bafetinib 0.017 | [6] -0.013

(listing goes on)

CENPE (UniProt Q02224)
inactive: alvocidib -0.084 | Tubastatin A -0.102 | [1] 0.017 | defactinib -0.002 | [2] -0.006 | encorafenib -0.009 | [3] 0.01 | alisertib 0.018 | [4] -0.012 | gefitinib 0.025 | lapatinib 0.069 | pictilisib -0.049 | crizotinib -0.06 | [5] -0.103 | duvelisib -0.005 | gandotinib 0.04 | tozasertib -0.024 | doramapimod 0.018 | bafetinib -0.042 | [6] 0.156

CDC27 isoform 2 (UniProt P30260)
inactive: alvocidib 0.013 | Tubastatin A -0.096 | [1] 0.047 | defactinib 0.001 | [2] -0.013 | encorafenib 0.022 | [3] -0.017 | alisertib -0.015 | [4] -0.009 | gefitinib -0.017 | lapatinib -0.032 | pictilisib 0.02 | crizotinib -0.025 | [5] -0.012 | duvelisib 0.003 | gandotinib -0.021 | tozasertib 0.012 | doramapimod 0.021 | bafetinib -0.062 | [6] 0.029
